Binding data for 2 molecules are collected here from paper PMC8961908.

The chains behind the UniProt entries cited, without tags or fusion partners.
UniProt O95197: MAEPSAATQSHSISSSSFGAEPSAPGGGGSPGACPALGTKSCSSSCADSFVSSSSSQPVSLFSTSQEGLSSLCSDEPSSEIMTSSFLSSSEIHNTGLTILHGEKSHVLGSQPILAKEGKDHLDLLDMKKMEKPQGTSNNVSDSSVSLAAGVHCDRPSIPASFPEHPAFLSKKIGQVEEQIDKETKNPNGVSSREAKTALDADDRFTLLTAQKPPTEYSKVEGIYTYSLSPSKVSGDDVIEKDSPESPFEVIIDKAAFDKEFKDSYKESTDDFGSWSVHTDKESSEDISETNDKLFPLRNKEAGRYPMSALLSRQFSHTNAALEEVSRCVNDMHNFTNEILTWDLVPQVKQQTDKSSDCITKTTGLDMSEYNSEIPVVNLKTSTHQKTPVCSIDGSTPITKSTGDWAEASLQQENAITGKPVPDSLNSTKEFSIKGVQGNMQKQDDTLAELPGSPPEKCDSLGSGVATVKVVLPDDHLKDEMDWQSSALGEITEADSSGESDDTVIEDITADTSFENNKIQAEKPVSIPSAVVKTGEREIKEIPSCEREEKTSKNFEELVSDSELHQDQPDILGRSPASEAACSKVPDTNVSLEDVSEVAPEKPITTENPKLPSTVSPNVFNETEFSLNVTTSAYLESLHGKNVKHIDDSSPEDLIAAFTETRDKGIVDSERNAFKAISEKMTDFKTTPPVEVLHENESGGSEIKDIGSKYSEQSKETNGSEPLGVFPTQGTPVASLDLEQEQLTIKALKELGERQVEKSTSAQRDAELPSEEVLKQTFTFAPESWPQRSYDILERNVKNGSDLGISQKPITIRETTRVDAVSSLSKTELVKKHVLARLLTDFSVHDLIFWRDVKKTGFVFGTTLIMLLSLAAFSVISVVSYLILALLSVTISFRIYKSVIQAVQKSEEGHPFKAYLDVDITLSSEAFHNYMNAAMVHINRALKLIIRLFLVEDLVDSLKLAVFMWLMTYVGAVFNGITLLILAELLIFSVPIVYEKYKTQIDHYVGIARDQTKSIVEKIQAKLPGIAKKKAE

Read-outs that look alike come from different tables or passages of the source. No constants are given. Whether binding was seen depends on the method and setting. In cells and extracts the contact can be indirect. Some binding calls cover weakened binding; strength is not graded here. For some assays here: Sequences can lack the tags named with a protein.

Experiment [1] deals with ADP-ribosylation factor-like 6 interacting protein 1 (ARL6IP1), endogenously C-terminally tagged (human (endogenous in U-2 OS)) (UniProt Q15041). In words: co-IP; FLAG M2 affinity beads on lysate of U-2 OS cells with endogenously tagged ARL6IP1-FLAG; western blot of endogenous partners or of transfected EGFP-ORP8 or EGFP. Background: A western blot detects proteins with antibodies after separation by electrophoresis.

The target is the same in experiment [2]. The experiment is described as above. This is another data set of the same source.

As to “reticulon 3 (RTN3) (from UniProt O95197 1-1032)”, the binding result in experiment [1] is “binds”.

B1: EGFP-ORP8 (protein, UniProt Q9BZF1 1-889)
chain: MEGGLADGEPDRTSLLGDSKDVLGPSTVVANSDESQLLTPGKMSQRQGKEAYPTPTKDLHQPSLSPASPHSQGFERGKEDISQNKDESSLSMSKSKSESKLYNGSEKDSSTSSKLTKKESLKVQKKNYREEKKRATKELLSTITDPSVIVMADWLKIRGTLKSWTKLWCVLKPGVLLIYKTQKNGQWVGTVLLNACEIIERPSKKDGFCFKLFHPLEQSIWAVKGPKGEAVGSITQPLPSSYLIIRATSESDGRCWMDALELALKCSSLLKRTMIREGKEHDLSVSSDSTHVTFYGLLRANNLHSGDNFQLNDSEIERQHFKDQDMYSDKSDKENDQEHDESDNEVMGKSEESDTDTSERQDDSYIEPEPVEPLKETTYTEQSHEELGEAGEASQTETVSEENKSLIWTLLKQVRPGMDLSKVVLPTFILEPRSFLDKLSDYYYHADFLSEAALEENPYFRLKKVVKWYLSGFYKKPKGLKKPYNPILGETFRCLWIHPRTNSKTFYIAEQVSHHPPISAFYVSNRKDGFCLSGSILAKSKFYGNSLSAILEGEARLTFLNRGEDYVMTMPYAHCKGILYGTMTLELGGTVNITCQKTGYSAILEFKLKPFLGSSDCVNQISGKLKLGKEVLATLEGHWDSEVFITDKKTDNSEVFWNPTPDIKQWRLIRHTVKFEEQGDFESEKLWQRVTRAINAKDQTEATQEKYVLEEAQRQAARDRKTKNEEWSCKLFELDPLTGEWHYKFADTRPWDPLNDMIQFEKDGVIQTKVKHRTPMVSVPKMKHKPTRQQKKVAKGYSSPEPDIQDSSGSEAQSVKPSTRRKKGIELGDIQSSIESIKQTQEEIKRNIMALRNHLVSSTPATDYFLQQKDYFIIFLLILLQVIINFMFK
Turning to B1, the binding entry in experiment [2] is recorded as “binds”.
